Reference: publication PMC4007762

Tests used:
[1] = target: T1, GST–PTP-PEST-C231S fusion protein (catalytically inactive trapping mutant) (UniProt Q05209); experiment: pull-down; substrate trapping: 10 µg GST fusion protein with 1 mg lysate of pervanadate-treated transfected cells (HEK 293T named for Fig. 1B and 6B), modified RIPA buffer, 4°C, 1 hour; western blot with anti-YFP; only the target purified
T1 sequence: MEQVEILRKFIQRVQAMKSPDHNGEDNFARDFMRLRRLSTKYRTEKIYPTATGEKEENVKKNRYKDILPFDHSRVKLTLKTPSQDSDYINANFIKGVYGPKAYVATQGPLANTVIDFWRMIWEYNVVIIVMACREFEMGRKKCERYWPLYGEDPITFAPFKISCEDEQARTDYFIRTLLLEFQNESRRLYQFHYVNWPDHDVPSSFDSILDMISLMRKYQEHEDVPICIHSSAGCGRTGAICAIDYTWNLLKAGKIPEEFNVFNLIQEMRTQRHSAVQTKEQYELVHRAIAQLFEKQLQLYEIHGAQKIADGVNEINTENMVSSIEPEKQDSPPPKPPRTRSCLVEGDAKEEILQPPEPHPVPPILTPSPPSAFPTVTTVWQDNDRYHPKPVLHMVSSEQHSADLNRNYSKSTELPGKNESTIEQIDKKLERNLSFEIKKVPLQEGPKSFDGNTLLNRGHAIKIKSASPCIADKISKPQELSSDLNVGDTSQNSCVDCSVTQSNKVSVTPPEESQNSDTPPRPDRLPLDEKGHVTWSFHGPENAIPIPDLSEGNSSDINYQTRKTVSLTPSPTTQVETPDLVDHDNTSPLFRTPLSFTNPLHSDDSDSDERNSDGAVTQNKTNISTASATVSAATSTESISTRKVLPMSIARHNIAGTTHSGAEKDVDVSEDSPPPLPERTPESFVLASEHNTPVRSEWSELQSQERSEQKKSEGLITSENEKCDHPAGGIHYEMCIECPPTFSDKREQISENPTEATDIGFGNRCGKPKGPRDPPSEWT

[2] = target: T1, GST–PTP-PEST-C231S fusion protein (catalytically inactive trapping mutant); experiment: condition: 10 µg fusion protein per 1 mg of cell lysate; pull-down; substrate trapping: 10 µg GST fusion protein with 1 mg lysate of pervanadate-treated transfected cells (HEK 293T named for Fig. 1B and 6B), modified RIPA buffer, 4°C, 1 hour; western blot with anti-YFP; only the target purified
YFP–p120-1A Y335F = target: T2, YFP–p120-1A Y335F (UniProt P30999); experiment: co-IP; YFP-tagged p120 constructs transiently expressed in HCT116-KD cells, immunoprecipitated with JL-8 in modified RIPA buffer; blots for VAV2, cortactin, E-cadherin
T2 sequence: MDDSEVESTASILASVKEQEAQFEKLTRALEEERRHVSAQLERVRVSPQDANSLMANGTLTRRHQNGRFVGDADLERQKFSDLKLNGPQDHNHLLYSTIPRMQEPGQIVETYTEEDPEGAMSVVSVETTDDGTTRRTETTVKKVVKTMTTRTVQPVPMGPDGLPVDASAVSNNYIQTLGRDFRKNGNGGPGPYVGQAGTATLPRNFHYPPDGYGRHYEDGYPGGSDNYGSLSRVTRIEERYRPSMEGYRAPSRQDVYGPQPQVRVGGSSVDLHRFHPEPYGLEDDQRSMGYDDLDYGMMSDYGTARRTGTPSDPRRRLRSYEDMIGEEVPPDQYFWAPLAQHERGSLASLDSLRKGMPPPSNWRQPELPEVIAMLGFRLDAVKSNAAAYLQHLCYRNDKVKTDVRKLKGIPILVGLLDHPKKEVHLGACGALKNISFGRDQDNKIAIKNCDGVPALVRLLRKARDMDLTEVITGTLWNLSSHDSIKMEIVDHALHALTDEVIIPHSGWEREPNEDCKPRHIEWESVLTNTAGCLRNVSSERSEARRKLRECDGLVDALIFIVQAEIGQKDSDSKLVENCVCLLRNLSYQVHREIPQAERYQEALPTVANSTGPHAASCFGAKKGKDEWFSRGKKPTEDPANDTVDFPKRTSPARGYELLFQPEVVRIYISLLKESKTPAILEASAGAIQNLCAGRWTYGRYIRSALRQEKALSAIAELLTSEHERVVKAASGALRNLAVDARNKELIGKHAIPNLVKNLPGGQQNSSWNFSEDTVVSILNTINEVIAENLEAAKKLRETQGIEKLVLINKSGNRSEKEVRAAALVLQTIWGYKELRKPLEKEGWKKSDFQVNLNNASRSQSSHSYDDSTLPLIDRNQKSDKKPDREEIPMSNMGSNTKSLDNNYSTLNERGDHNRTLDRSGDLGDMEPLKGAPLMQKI

[3] = target: T3, p120 catenin, endogenous (human cell lines) (human (endogenous in KM12C, HEK 293T, HCT116)) (UniProt O60716); experiment: co-IP; endogenous p120 immunoprecipitated with monoclonal p120 antibody from HCT116-NT and HCT116-KD cells in modified RIPA buffer; blots for VAV2, cortactin, p190 RhoGAP
T3 sequence: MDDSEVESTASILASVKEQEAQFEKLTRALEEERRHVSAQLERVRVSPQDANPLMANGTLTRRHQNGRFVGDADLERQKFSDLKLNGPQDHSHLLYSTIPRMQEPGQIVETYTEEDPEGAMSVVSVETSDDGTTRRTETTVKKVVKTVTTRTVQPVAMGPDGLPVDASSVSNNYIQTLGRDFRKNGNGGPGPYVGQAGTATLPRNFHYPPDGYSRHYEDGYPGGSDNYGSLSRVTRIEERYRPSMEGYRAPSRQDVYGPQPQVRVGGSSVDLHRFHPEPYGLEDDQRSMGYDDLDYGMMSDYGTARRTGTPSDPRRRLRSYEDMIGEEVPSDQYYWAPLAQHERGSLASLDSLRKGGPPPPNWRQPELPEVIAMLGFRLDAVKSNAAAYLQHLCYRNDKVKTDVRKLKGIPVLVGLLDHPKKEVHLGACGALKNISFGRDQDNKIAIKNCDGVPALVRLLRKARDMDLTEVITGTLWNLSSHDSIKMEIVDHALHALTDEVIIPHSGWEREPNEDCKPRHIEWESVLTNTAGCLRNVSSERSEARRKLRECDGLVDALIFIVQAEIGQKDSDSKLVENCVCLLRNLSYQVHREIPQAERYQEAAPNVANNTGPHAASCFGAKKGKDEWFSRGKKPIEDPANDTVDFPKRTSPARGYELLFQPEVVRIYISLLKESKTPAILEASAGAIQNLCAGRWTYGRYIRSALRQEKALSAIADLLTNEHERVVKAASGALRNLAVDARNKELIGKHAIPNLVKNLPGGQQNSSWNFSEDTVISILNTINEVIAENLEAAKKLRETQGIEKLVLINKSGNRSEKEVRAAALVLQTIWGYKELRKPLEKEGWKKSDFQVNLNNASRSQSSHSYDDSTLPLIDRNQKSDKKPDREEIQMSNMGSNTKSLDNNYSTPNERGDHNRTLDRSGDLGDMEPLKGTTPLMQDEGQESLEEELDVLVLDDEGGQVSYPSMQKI

[4] = target: GFP-tagged VAV2 C-terminal SH3-SH2-SH3 domain; experiment: co-IP; GFP-SH3-SH2-SH3 VAV2 transiently transfected into HCT116-NT or HCT116-KD cells, immunoprecipitated with anti-GFP antibody (48 hours), blot for endogenous p120
[5] = target: E-cadherin, endogenous (human cell lines) (human (endogenous in KM12C, HEK 293T, HCT116)); experiment: co-IP; cell-surface E-cadherin bound by DECMA-1 on HCT116 cells on ice (non-targeting or PTP-PEST smart pool siRNA), lysis in 50 mM Tris pH 7.6, 150 mM NaCl, 0.5% NP-40, protein-A–Sepharose; blots for p120, α-catenin, β-catenin

YFP-tagged p120 4A isoform was tested, and the binding [1] was “binds weakly” and the binding [2] was “no binding”.

In the case of “E-cadherin, endogenous (human cell lines)”, the binding (YFP–p120-1A Y335F) is reported as “binds”.

With “p190RhoGAP, endogenous (HCT116 cells) (human (endogenous in HCT116))” the binding [3] was “no binding”.

For “YFP-tagged p120 N-terminal domain (domain or fragment)”, the binding [1] was “binds”.

With “C-terminal deletion of p120 (p120-ΔC) (domain or fragment)” the binding [1] was “binds”.

B1: p120 catenin, endogenous (human cell lines) (protein, UniProt O60716 1-968)
chain: MDDSEVESTASILASVKEQEAQFEKLTRALEEERRHVSAQLERVRVSPQDANPLMANGTLTRRHQNGRFVGDADLERQKFSDLKLNGPQDHSHLLYSTIPRMQEPGQIVETYTEEDPEGAMSVVSVETSDDGTTRRTETTVKKVVKTVTTRTVQPVAMGPDGLPVDASSVSNNYIQTLGRDFRKNGNGGPGPYVGQAGTATLPRNFHYPPDGYSRHYEDGYPGGSDNYGSLSRVTRIEERYRPSMEGYRAPSRQDVYGPQPQVRVGGSSVDLHRFHPEPYGLEDDQRSMGYDDLDYGMMSDYGTARRTGTPSDPRRRLRSYEDMIGEEVPSDQYYWAPLAQHERGSLASLDSLRKGGPPPPNWRQPELPEVIAMLGFRLDAVKSNAAAYLQHLCYRNDKVKTDVRKLKGIPVLVGLLDHPKKEVHLGACGALKNISFGRDQDNKIAIKNCDGVPALVRLLRKARDMDLTEVITGTLWNLSSHDSIKMEIVDHALHALTDEVIIPHSGWEREPNEDCKPRHIEWESVLTNTAGCLRNVSSERSEARRKLRECDGLVDALIFIVQAEIGQKDSDSKLVENCVCLLRNLSYQVHREIPQAERYQEAAPNVANNTGPHAASCFGAKKGKDEWFSRGKKPIEDPANDTVDFPKRTSPARGYELLFQPEVVRIYISLLKESKTPAILEASAGAIQNLCAGRWTYGRYIRSALRQEKALSAIADLLTNEHERVVKAASGALRNLAVDARNKELIGKHAIPNLVKNLPGGQQNSSWNFSEDTVISILNTINEVIAENLEAAKKLRETQGIEKLVLINKSGNRSEKEVRAAALVLQTIWGYKELRKPLEKEGWKKSDFQVNLNNASRSQSSHSYDDSTLPLIDRNQKSDKKPDREEIQMSNMGSNTKSLDNNYSTPNERGDHNRTLDRSGDLGDMEPLKGTTPLMQDEGQESLEEELDVLVLDDEGGQVSYPSMQKI
B1 was tested, and the binding [4] was “binds” and the binding [5] was “binds”.

No constants are given. Whether binding was seen depends on the method and setting. Binding seen in cells or lysates may run through a third protein. For some assays here: Binding calls can cover weak binding; strength is not graded here. For some assays here: Where a sequence is shown, tags or fusion partners need not be part of it.
